Results on two molecules are retold here after the supplement of paper PMC10032668.

Sequences of proteins named here, by UniProt entry; tags and fusion partners are left off.
APOA1, P02647, UniProt P02647, whole entry: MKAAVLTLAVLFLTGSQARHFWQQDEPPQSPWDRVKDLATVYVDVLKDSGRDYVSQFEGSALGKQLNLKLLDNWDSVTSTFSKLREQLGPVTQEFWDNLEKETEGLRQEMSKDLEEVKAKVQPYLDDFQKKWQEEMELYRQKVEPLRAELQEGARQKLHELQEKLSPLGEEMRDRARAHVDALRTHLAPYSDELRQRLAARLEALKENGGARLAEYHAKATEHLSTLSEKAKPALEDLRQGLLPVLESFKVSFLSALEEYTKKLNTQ
NEDD8, Q15843, UniProt Q15843, whole entry: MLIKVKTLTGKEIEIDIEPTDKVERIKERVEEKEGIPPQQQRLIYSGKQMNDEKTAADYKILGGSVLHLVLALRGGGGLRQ
SS18, Q15532, UniProt Q15532, whole entry: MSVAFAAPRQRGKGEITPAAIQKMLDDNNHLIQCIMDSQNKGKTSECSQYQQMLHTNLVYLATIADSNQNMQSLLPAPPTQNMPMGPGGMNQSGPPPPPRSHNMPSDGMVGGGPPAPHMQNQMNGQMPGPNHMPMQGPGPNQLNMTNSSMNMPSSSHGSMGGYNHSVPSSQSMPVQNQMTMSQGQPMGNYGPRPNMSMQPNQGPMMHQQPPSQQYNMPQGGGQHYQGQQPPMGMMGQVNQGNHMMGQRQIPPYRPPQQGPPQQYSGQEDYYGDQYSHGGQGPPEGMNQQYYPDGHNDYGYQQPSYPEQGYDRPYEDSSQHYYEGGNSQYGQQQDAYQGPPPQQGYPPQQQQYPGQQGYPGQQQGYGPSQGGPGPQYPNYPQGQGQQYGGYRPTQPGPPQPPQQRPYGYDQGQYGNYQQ
RBBP5, Q15291, UniProt Q15291, whole entry: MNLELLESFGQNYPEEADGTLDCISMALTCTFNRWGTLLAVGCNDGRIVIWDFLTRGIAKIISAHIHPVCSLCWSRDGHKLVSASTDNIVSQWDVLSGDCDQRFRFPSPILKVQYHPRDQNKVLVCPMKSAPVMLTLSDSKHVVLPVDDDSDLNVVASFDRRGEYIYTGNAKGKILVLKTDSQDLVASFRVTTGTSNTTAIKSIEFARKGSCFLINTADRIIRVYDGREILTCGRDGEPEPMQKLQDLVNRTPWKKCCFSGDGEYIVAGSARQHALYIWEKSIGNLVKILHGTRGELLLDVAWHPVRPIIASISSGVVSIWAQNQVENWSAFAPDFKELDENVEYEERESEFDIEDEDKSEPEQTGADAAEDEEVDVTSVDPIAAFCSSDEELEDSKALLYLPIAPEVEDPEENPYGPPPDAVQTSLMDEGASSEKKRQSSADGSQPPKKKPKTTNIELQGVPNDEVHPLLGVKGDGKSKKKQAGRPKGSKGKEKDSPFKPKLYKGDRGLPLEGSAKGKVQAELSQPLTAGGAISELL

The list shows a part of the results. The list holds hits alone, and they repeat only in part.

Common to all, as to test: PRISMA enrichment of interactor (LFQ) in peptide spot vs all other peptide spots (log2 fold change); higher = stronger / more specific binding of the interactor to the peptide
One assay deals with APOA1, P02647. The procedure: (§1)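 PRISMA: 15-aa overlapping tiles (offset 8 aa) of 60 microproteins, plus SOS1/GLUT1 control peptides, were spot-synthesized on cellulose membranes in triplicate. Membranes were incubated with benzonase-treated HEK293T lysate, and bound proteins were identified by LC-MS/MS with LFQ. Enrichment is the log2 fold change of each protein in one spot versus all other spots. Only interactors passing the significance cutoff are listed.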

The target of another assay is C1orf131, Q8NDD1. The procedure:
as §1

The target in the next assay is CC2D1A, Q6P1N0. Here is the method:
as §1

The target in the next assay is CTR9, Q6PD62. The procedure:
as §1

A further assay addresses DSG2, Q14126. Here is the method:
as §1

Another assay concerns the target FAM98A, Q8NCA5. The procedure: as §1
Another assay deals with IGF2BP2, Q9Y6M1. Here is the method: as §1
The next assay deals with ITIH2, P19823. The procedure:
as §1

Another assay has as its target NEDD8, Q15843. Here is the method:
as §1

For a further assay, the target named is NMT1, P30419. The procedure:
as §1

Substrate in assay [1]: NOSIP, Q9Y314
The procedure:
as §1

The target in another assay is RCE1, Q9Y256. The procedure:
as §1

The next assay addresses SGPP1, Q9BX95. Here is the method:
as §1

A further assay has as its target SLC25A1, P53007. The procedure: as §1
The next assay concerns the target SS18, Q15532. The procedure:
as §1

In the next assay the target is TEX264, Q9Y6I9. Here is the method:
as §1

A further assay deals with TWNK, Q96RR1. The procedure: as §1
Another assay has as its target UFD1, Q92890. The procedure:
as §1

Another assay has as its target WTAP, Q15007. Here is the method:
as §1

In a further assay the target is YTHDC2, Q9H6S0. Here is the method:
as §1

Another assay deals with ZNF703, Q9H7S9. Here is the method:
as §1

The target in the next assay is AP3S1, Q92572. Here is the method: as §1
The target of a further assay is CDIPT, O14735. The procedure: as §1
A further assay addresses CEP290, O15078. Here is the method:
as §1

A further assay concerns the target GNL2, Q13823. The procedure: as §1
The next assay has as its target ODF2, Q5BJF6. The procedure: as §1
The target of a further assay is P3H1, Q32P28. Here is the method: as §1
A further assay addresses RBBP5, Q15291. Here is the method:
as §1

Another assay concerns the target SAAL1, Q96ER3. The procedure:
as §1

Substrate in assay [2]: SPOP, O43791
The procedure: as §1

Another assay concerns the target UBA1, P22314. Here is the method:
as §1

Consider AEPASQWVPVRNSST [RP11-432J24.5_2], for which the “PRISMA enrichment of interactor (log2)” value was found to be 4.61 with APOA1, P02647; 4.95 with C1orf131, Q8NDD1; 5.32 with CC2D1A, Q6P1N0; 5.28 in the assay with CTR9, Q6PD62; 4.26 in the assay with DSG2, Q14126; 5.44 with FAM98A, Q8NCA5. Also, the “PRISMA enrichment of interactor (log2)” value with IGF2BP2, Q9Y6M1 stood at 7.41; in the assay with ITIH2, P19823, 4.06; with NEDD8, Q15843 it was 4.42; in the assay with NMT1, P30419, 6.12; in [1], 4.89; in the assay with RCE1, Q9Y256, 3.96. In addition, the “PRISMA enrichment of interactor (log2)” value was found to be 4.64 in the assay with SGPP1, Q9BX95; 4.41 in the assay with SLC25A1, P53007; 4.72 in the assay with SS18, Q15532; 4.99 with TEX264, Q9Y6I9; 5.7 with TWNK, Q96RR1; 6.36 with UFD1, Q92890. The “PRISMA enrichment of interactor (log2)” value in the assay with WTAP, Q15007 is 4.44; in the assay with YTHDC2, Q9H6S0, 8.17; in the assay with ZNF703, Q9H7S9, 4.2.

Regarding MVGQRLGRWRGEAGR [PARL], the “PRISMA enrichment of interactor (log2)” value with AP3S1, Q92572 turned out to be 4.84; with CDIPT, O14735, 6.79; with CEP290, O15078, 5.93; with GNL2, Q13823, 4.88; with ODF2, Q5BJF6, 6.65; with P3H1, Q32P28, 4.13. The “PRISMA enrichment of interactor (log2)” value with RBBP5, Q15291 came to 5.74; with SAAL1, Q96ER3 it was 4.23; in [2] it was 4.15; in the assay with UBA1, P22314 it was 6.56.
